Data reported in article PMC10616111.
No constants are given. Whether binding was seen depends on the method and setting. In cells and extracts the contact can be indirect. These calls come from enrichment with a bait or labelling near it, and not all partners need be listed.

The chains behind the UniProt entries cited, without tags or fusion partners. Where a name states a change or a piece, a line headed by the entry shows the natural chain unless it says otherwise.
UniProt P52895: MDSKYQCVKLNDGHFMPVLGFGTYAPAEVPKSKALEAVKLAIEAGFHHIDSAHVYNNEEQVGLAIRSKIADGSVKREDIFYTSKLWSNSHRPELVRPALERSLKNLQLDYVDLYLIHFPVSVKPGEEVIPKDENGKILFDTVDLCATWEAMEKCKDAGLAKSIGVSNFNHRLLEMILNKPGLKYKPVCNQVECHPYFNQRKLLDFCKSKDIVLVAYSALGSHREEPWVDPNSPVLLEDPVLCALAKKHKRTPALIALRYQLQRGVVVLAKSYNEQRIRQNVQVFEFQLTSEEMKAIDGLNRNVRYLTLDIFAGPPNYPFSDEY
UniProt P46937: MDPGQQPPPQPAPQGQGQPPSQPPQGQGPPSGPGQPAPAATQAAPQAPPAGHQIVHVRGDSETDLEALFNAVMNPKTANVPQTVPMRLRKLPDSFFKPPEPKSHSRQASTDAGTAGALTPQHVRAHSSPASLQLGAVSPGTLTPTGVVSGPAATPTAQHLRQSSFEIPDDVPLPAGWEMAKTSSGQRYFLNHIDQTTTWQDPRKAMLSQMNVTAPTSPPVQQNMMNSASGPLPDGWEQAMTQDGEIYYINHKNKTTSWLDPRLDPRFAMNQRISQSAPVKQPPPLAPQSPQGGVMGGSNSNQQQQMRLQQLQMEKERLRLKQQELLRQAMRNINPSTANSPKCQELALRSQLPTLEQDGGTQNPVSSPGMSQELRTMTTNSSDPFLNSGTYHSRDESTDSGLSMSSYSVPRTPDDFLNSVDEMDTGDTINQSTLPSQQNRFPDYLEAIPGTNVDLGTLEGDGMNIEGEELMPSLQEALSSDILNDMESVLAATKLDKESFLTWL

Molecular target: pep-AKR1C2 (163-aa microprotein encoded by lncAKR1C2), Flag-labelled (human) (UniProt P52895)
Experiment: affinity purification with mass spectrometry; co-IP of Flag-labelled pep-AKR1C2 combined with LC-MS/MS (Q Exactive); silver staining of the precipitate

binding: binds
Substance: YAP (Yes-associated protein) (from UniProt P46937 1-504)
